Numbering of substitutions follows the chain as printed. These are yes or no findings as the source states them, for the method shown. For some of these results: In cells and extracts the contact can be indirect. Some results given as binding are weak or reduced against the parent protein; the word gives no strength. For some of these results: Sequences can lack the tags named with a protein. Values belong to the substance of their own block, whether it stands above or below them.
Columns and labels:
[1] = target: T1, GST-tagged SLC27A5 (human) (UniProt Q9Y2P5); assay: pull-down; GST pull-down: purified GST-SLC27A5 and 6xHis-IGF2BP3 incubated with glutathione agarose beads for 3 h; wash buffer 137 mM NaCl, 2.7 mM KCl, 10 mM Na2HPO4, 2 mM KH2PO4, 0.5% Triton X-100; immunoblot; both purified
T1 sequence: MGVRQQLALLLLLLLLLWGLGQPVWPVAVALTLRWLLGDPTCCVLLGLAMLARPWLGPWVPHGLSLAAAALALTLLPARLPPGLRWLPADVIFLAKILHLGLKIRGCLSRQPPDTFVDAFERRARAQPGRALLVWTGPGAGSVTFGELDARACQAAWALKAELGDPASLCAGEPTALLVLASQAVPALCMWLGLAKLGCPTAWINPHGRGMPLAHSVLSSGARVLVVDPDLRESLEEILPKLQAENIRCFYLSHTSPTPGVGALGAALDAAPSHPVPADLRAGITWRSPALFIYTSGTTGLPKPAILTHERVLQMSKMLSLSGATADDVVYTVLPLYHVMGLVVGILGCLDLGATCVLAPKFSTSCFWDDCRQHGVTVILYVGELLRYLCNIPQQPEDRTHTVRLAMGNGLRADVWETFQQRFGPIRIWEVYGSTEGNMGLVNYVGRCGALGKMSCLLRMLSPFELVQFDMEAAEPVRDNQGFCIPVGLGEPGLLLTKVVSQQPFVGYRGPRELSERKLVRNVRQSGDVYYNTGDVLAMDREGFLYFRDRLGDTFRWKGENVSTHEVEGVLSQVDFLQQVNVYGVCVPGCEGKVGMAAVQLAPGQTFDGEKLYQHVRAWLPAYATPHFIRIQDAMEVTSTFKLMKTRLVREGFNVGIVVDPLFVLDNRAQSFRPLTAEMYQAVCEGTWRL

Amino acid sequences for entries named in this document (tags omitted). A change or cut given only in a name is not applied to a line headed by its entry.
UniProt O00425: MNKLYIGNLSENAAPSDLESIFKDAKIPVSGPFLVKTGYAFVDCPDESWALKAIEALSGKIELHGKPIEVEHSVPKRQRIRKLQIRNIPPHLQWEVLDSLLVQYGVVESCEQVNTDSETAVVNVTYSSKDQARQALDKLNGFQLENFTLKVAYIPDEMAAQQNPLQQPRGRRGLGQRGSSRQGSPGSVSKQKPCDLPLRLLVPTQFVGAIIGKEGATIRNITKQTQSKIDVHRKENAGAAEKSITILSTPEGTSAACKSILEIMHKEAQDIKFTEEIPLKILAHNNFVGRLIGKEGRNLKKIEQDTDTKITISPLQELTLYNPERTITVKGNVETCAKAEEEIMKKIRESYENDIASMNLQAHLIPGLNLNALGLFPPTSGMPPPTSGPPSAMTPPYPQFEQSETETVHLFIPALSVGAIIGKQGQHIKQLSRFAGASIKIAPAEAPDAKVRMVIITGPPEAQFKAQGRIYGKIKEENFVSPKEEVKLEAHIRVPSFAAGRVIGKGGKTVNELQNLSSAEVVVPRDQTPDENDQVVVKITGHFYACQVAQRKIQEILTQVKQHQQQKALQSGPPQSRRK
UniProt Q9Y6M1: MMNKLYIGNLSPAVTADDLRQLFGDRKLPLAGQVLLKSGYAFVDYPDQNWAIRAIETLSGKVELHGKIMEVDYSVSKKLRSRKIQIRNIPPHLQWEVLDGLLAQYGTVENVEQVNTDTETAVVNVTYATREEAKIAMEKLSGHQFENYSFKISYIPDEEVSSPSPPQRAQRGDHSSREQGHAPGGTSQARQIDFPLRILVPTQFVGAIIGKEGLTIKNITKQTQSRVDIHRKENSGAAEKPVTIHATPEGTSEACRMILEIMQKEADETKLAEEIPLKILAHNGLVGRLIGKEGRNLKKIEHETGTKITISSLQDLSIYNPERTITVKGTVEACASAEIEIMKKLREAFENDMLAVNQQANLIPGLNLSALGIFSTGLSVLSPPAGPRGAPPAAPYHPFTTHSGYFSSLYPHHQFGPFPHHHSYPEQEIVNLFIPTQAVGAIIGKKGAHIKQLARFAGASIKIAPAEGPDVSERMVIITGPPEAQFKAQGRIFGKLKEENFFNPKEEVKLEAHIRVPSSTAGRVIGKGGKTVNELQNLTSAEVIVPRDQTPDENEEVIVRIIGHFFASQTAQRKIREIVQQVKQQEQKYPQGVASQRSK

[2] = target: T2, SLC27A5 (co-IP with IGF2BP2, data not shown) (human) (UniProt Q9Y2P5); assay: co-IP; data not shown; cells and constructs not told
T2 sequence: T1 sequence

[3] = target: T3, SLC27A5 (S296A), enzyme-inactivated mutant (human) (UniProt Q9Y2P5); assay: co-IP; IP analysis of the SLC27A5 S296A mutant (Figure S2B); cells not told
T3 sequence: T1 sequence with S296A

[4] = target: T4, Flag-SLC27A5 (solute carrier family 27 member 5, 3xFlag-tagged) (human) (UniProt Q9Y2P5); assay: co-IP; PLC/PRF/5 cells transfected with Flag-SLC27A5 and Myc-IGF2BP3 or their truncated forms; IP with anti-Myc or anti-Flag, IgG as control; RIPA lysate, magnetic beads, overnight at 4 °C
T4 sequence: T1 sequence

[5] = target: T5, SLC27A5 in HepG2 cells (human (endogenous in HepG2)) (UniProt Q9Y2P5); assay: co-IP; IP and WB in HepG2 cells; RIPA lysate, magnetic beads, overnight at 4 °C
T5 sequence: T1 sequence

[6] = target: T6, SLC27A5 ΔN (aa 78-690) (human) (UniProt Q9Y2P5); assay: co-IP; PLC/PRF/5 cells transfected with Flag-SLC27A5 and Myc-IGF2BP3 or their truncated forms; IP with anti-Myc or anti-Flag, IgG as control; RIPA lysate, magnetic beads, overnight at 4 °C
T6 sequence: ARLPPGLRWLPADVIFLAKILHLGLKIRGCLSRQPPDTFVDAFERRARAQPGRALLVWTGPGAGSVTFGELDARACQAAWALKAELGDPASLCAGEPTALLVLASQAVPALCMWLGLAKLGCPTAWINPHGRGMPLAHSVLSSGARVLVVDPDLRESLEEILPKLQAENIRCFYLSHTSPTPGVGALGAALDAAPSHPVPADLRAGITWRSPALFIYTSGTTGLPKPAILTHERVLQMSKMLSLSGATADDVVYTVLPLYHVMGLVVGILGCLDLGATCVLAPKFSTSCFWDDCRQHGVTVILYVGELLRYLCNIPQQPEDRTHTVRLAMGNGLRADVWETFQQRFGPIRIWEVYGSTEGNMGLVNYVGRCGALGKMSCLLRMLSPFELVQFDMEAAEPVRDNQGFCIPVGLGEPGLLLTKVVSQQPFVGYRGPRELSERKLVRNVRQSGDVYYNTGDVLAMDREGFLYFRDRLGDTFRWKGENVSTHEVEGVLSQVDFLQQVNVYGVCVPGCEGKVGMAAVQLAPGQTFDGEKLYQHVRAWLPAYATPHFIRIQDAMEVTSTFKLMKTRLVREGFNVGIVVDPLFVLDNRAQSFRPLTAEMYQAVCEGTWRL

binding [1]: binds
Substance: 6xHis-IGF2BP3 (from UniProt O00425 1-579)

binding [2]: binds weakly
Substance: IGF2BP2 (co-IP with SLC27A5, data not shown) (from UniProt Q9Y6M1 1-599)

binding [3]: binds
Substance: IGF2BP3 (IP with SLC27A5 S296A, Figure S2B) (from UniProt O00425 1-579)

binding [4]: binds
Substance: IGF2BP3 KH1-2 (aa 195-344) (from UniProt O00425 195-344) (domain or fragment)

binding [5]: binds
Substance: IGF2BP3 in HepG2 cells (from UniProt O00425 1-579)

binding [6]: binds
binding [4]: binds
Substance: Myc-IGF2BP3 (insulin like growth factor 2 mRNA binding protein 3) (from UniProt O00425 1-579)
